Experimental data reported in the supplement of paper PMC12823440, “Inhibitors supercharge kinase turnover through native proteolytic circuits” (Nature, 2025).
Structures can show the parent of a compound that is named as a salt. This is one part of the list. Hit calls seldom repeat between salt and free forms of one compound.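 Kinases were expressed as nanoluciferase fusions in K562 cells and luminescence was read every 4 h between 2 and 18 h as percent of control, DMSO set to 100% and a positive control to 0%. A time point counts as decreased when the signal drops significantly (2 sigma). The hit call is the authors' own, does not follow from the count of time points alone, and its rule is not shown.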

The chains behind the UniProt entries cited, without tags or fusion partners.
UniProt P00519, whole entry: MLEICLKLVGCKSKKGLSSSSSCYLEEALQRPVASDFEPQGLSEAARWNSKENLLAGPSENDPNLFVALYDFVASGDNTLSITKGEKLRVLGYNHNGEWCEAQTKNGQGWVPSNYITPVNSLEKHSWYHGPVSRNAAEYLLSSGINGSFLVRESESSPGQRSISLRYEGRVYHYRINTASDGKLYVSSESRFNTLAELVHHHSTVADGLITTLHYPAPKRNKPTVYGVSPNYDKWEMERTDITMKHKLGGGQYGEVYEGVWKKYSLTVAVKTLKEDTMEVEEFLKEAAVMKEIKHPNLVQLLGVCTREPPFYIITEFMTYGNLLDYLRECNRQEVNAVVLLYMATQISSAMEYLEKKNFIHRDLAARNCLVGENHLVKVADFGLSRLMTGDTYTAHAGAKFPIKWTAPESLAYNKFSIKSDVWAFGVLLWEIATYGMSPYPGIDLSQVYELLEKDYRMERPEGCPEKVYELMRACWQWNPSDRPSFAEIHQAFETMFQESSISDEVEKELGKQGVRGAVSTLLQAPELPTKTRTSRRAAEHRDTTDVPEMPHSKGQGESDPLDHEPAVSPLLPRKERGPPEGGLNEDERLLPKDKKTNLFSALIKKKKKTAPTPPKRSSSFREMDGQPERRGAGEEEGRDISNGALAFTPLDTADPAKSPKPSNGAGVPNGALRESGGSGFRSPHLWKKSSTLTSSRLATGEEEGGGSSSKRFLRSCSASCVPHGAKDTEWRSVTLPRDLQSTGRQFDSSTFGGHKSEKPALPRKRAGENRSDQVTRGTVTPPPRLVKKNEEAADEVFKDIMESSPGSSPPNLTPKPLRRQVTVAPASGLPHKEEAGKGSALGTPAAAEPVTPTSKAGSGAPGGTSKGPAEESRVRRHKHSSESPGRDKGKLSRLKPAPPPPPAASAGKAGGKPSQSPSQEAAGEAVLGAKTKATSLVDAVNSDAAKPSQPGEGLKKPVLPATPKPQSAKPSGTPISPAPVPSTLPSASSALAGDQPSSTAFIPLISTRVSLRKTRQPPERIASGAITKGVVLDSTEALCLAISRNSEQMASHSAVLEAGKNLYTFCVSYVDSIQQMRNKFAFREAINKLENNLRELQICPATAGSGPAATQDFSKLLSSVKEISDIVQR

These compounds were tested against ABL1 (UniProt P00519) (assay: number of time points (of 5) at which kinase-Nluc abundance scored as decreased, DMSO-normalised (count); higher = more persistent destabilization). Details: K562; 2-18 h.

Row | SMILES | number of time points
1 | O=C(Nc1ccccc1C(=O)NC1CCCCNC1=O)c1cc2ccccc2s1 (centres undefined) (10 µM) | 0
2 | CCOc1cc(=O)[nH]cc1-c1ccc(CC(=O)Nc2cc(C(C)(C)C(F)(F)F)on2)c(F)c1 (10 µM) | 0
3 | Cn1cnc2c(F)c(Nc3ccc(Br)cc3F)c(C(=O)NOCCO)cc21 [Binimetinib] (10 µM) | 0
4 | Cc1ccc(NC(=O)N2CCN(c3nc(N)nc4sc(-c5cccnc5)nc34)CC2)cc1 [PI4KIII beta inhibitor 3] (10 µM) | 0
5 | CC(C1CC1)n1cnc2c(NCc3cccc(C(F)(F)F)c3)nc(NCCN(C)C)nc21 (centres undefined) (10 µM) | 0
6 | CCn1c(N)c(C(=O)NC)c(=O)c2ccc(C#CC(C)(O)COC)nc21 (centres undefined) (10 µM) | 0
7 | N#Cc1cc(N2CCC(C(=O)N3N=CC[C@H]3c3cc(F)cc(F)c3)CC2)ncn1 (10 µM) | 0
8 | CN1CCN(Cc2ccc(-c3cn(C4CCC(O)CC4)c4nc(NCCC5CC5)ncc34)cc2)CC1 (centres undefined) (2.5 µM) | 0
9 | COc1ccc(Cl)cc1N(CC(=O)Nc1ccc2c(c1)OCO2)S(=O)(=O)c1ccccc1 (2.5 µM) | 0
10 | CS[C@@]1(C(=O)Nc2ccc3[nH]nc(-c4ccc(OC(C)C)nc4)c3c2)CCN(CC(=O)N2CC=C(c3ccc(-c4ncn(C)n4)cc3)CC2)C1 (2.5 µM) | 0
11 | CCc1cc(Nc2nccc(-c3c(-c4ccc(OC)c(C(=O)Nc5c(F)cccc5F)c4)nc4ccccn34)n2)c(OC)cc1N1CCC(N2CCN(S(C)(=O)=O)CC2)CC1 (2.5 µM) | 0
12 | O=C(O)/C=C(\CCc1ccc(Cl)cc1)c1ccccc1 (10 µM) | 0
13 | Cc1cccc(CC(=O)N2CCc3c2ccc(-c2cn(C)c4ncnc(N)c24)c3F)n1 (10 µM) | 0
14 | CN(C)CCn1cc2cc(NC(=O)c3cccc(C(F)(F)F)n3)c(C(C)(C)O)cc2n1 (10 µM) | 0
15 | Cc1cc(N2CCOCC2)ccc1Nc1nc(NC2CCCCC2)c2[nH]cnc2n1 (10 µM) | 0
16 | COc1c(Nc2ncc(Cl)c(N[C@H]3[C@@H](C(N)=O)[C@@H]4C=C[C@H]3C4)n2)ccc2c1CC[C@@H](N1CCOCC1)CC2 (10 µM) | 0
17 | COc1cc2ncnc(Nc3cc(Br)c(O)c(Br)c3)c2cc1OC (2.5 µM) | 0
18 | Cc1cncc2cccc(S(=O)(=O)N3CCCNC[C@@H]3C)c12 [H-1152 (dihydrochloride)] (10 µM) | 0
19 | Nc1ccc(O)c(C(=O)O)c1 [5-Aminosalicylic Acid] (10 µM) | 0
20 | CC(C)(C)S(=O)(=O)c1cc2c(Nc3ccc4scnc4c3)ncnc2cc1OCCOP(=O)(O)O (2 µM) | 0

Some of these compounds in order of count of non-hydrogen atoms, largest number first.
Row | SMILES | number of time points
10 | CS[C@@]1(C(=O)Nc2ccc3[nH]nc(-c4ccc(OC(C)C)nc4)c3c2)CCN(CC(=O)N2CC=C(c3ccc(-c4ncn(C)n4)cc3)CC2)C1 (2.5 µM) | 0
9 | COc1ccc(Cl)cc1N(CC(=O)Nc1ccc2c(c1)OCO2)S(=O)(=O)c1ccccc1 (2.5 µM) | 0
19 | Nc1ccc(O)c(C(=O)O)c1 [5-Aminosalicylic Acid] (10 µM) | 0

Remaining list, next part

Row | SMILES | number of time points
21 | CC(C)(CCCCCC(O)CCCCCC(C)(C)C(=O)O)C(=O)O [Bempedoic acid] (10 µM) | 0
22 | Cc1n[nH]c2ncc(C(=O)N3CCC[C@H]3c3ccc(Cl)cc3)cc12 (10 µM) | 0
23 | CCOC(=O)c1c(Nc2ccccc2Cl)oc(/C=C2\C=Nc3ncccc32)c1O (10 µM) | 0
24 | O=C(CCl)c1c[nH]c2ccccc12 (2.5 µM) | 0
25 | O=C(Nc1ccc(F)cc1F)C(NC(=S)Nc1cc(C(F)(F)F)cc(C(F)(F)F)c1)c1ccccc1 (racemic) (2.5 µM) | 1
26 | COc1cc2nc(NC3CC3)nc(NC3CCN(C(C)C)CC3)c2cc1OC (10 µM) | 2
27 | C=CC(=O)Nc1cc(Nc2nccc(-c3cn(C)c4ccccc34)n2)c(OCC(F)(F)F)nc1N(C)CCNC [AST5902  (trimesylate)] (2.5 µM) | 2
28 | CN(C)c1cc[n+](Cc2ccc(OCCOc3ccc(C[n+]4ccc(N(C)C)cc4)cc3)cc2)cc1 (10 µM) | 0
29 | COc1cc(N2CCC(O)CC2)ccc1Nc1nc(Nc2ccccc2S(=O)(=O)C(C)C)c2[nH]cnc2n1 (10 µM) | 0
30 | Cc1cccc(-c2nn3c(c2-c2ccnc4ccc(C(N)=O)cc24)CCC3)n1 [Galunisertib] (10 µM) | 0
31 | C[C@@H]1COC(Nc2ccc3ncnc(Nc4ccc(OCc5nccs5)c(Cl)c4)c3c2)=N1 [Varlitinib] (10 µM) | 0
32 | CS(=O)(=O)c1ccc([C@@H](CC2CCCC2)C(=O)Nc2nccs2)cc1 (10 µM) | 0
33 | S=C(NCc1ccc2c(c1)OCO2)N1CCN(c2ncnc3c2oc2ccccc23)CC1 [Amuvatinib] (2.5 µM) | 0
34 | CCC(F)(F)c1cc(N2CCC(S(C)(=O)=O)CC2)nc2sc(C(N)=O)c(N)c12 (10 µM) | 0
35 | O=c1cc(N2CCOCC2)oc2c(-c3cccc4c3sc3ccccc34)cccc12 (10 µM) | 0
36 | N#Cc1cnc(Nc2cc(NC[C@H]3CNCCO3)c(C(F)(F)F)cn2)cn1 (10 µM) | 1
37 | Nc1ccc(C(=O)Nc2cccc(-c3nc(N4CCOCC4)c4oc5ncccc5c4n3)c2)cn1 (10 µM) | 0
38 | COc1cc(N2CCC(N3CCN(C)CC3)CC2)ccc1Nc1ncnc(Nc2ccccc2S(=O)(=O)C(C)C)n1 (10 µM) | 0
39 | CO[C@@H]1[C@H](N(C)C(=O)c2ccccc2)C[C@H]2O[C@]1(C)n1c3ccccc3c3c4c(c5c6ccccc6n2c5c31)C(=O)NC4 [Midostaurin] (2.5 µM) | 4
